From PMC10699890
No constants are given. Whether binding was seen depends on the method and setting. For some assays here: Binding seen in cells or lysates may run through a third protein. Some entries that bind do so weakly or less than the wild type. Sequences can lack the tags named with a protein.

What was measured:
[1] = biological target: T1, AGL15 (bait of the yeast 2‐hybrid screen) (Arabidopsis thaliana) (UniProt Q38847); experiment: two-hybrid; yeast 2-hybrid screen for proteins that interact with AGL15; details in Hill et al. (2008)
T1 sequence: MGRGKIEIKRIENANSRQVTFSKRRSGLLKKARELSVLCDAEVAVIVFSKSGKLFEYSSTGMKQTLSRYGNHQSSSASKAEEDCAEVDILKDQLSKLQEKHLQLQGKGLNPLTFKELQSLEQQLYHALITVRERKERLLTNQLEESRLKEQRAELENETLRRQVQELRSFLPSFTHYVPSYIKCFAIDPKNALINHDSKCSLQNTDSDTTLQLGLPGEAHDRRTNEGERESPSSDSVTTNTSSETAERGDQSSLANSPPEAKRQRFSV

[2] = biological target: T2, AGAMOUS LIKE15 (AGL15) in embryonic culture tissue (Arabidopsis thaliana) (UniProt Q38847); experiment: co-IP; nuclear extract of 35S:LBD40-10x-c-Myc::35S:AGL15 ECT, sonicated, treated with benzonase; immunoprecipitated with anti-AGL15 serum (pre-immune as control); blot with anti-c-myc and anti-AGL15
T2 sequence: T1 sequence

B1: AD (activation domain)‐LBD40 (protein, UniProt Q9ZW96 1-233)
chain: MRMSCNGCRVLRKGCSENCSIRPCLQWIKSAESQANATVFLAKFYGRAGLMNLLNTGPDHLRPAIFRSLLYEACGRIVNPIYGSVGLLWSGNWHLCQAAVEAVMRGSPVTPIACDAAVTGQAPPFNNKLCDIRHVSSRDENVKRRSRGACKEERNVRSLSHESSLSHESPVSSEETTTEEPKTWIGLELTLGLEPLARGNHVVVPMKKRKLERCGTSEDEDTCKIELGLVCSE
B1 was tested, and the binding [1] was “binds”.

B2: LBD40‐10x‐c‐Myc (protein, UniProt Q9ZW96 1-233)
chain: B1 chain
In the case of B2, the binding [2] is reported as “binds”.
